The supplement of paper PMC3334620
Over roughly 33,000 sequences, “E-score (-0.5 to 0.5)” has its median near -0.0034; the highest 2% begin near 0.25. The list shows a part of the results.

molecular target: T1, Yap3 (UniProt P38749); experiment: PBM E-score (8-mer binding enrichment) (E-score (-0.5 to 0.5)); higher = stronger / more preferred TF binding; conditions: protein concentration: 100 nM; construct: GST-full length
T1 sequence: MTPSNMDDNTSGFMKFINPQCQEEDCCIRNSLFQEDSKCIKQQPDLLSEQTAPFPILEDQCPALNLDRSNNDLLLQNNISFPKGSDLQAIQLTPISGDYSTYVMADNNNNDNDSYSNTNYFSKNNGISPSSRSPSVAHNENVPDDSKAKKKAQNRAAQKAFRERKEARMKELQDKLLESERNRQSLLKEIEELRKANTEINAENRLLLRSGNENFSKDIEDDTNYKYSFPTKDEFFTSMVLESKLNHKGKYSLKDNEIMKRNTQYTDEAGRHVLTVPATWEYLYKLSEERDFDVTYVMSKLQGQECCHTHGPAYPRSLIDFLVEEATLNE
How it was run: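 Universal all-10-mer Agilent arrays, fresh or stripped once, were converted to double-stranded form by primer extension. GST-tagged yeast transcription factors from PURExpress in vitro transcription/translation, full-length or DNA-binding domain only, were applied at about 100-200 nM and detected with fluorescent anti-GST. After masliner normalisation, the Universal PBM Analysis Suite scored each ungapped eight-base word together with its reverse complement by E-score.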

Sequence | PBM E-score
AGTATGGA | 0.0471
CACGATGA | -0.0352
AGCCCGTG | -0.272
ACGTACGA | 0.12
ATGGCGAG | -0.0102
CAGCCGTA | -0.0218
GGGCCGGA | -0.221
ATACCAGA | 0.0838
ACCAGACG | -0.0225
GGTGCAAA | -0.0554
AAGACCTG | -0.0952
AAAGCGAG | 0.151
GCATTCTA | 0.0863
CGAAAGGA | 0.0982
AAAGCACG | 0.00603
CACCCCCA | -0.259
AATACCAG | 0.0568
AACCGCTG | -0.0528
CCAAACAC | 0.0223
GCGTGGGA | -0.0649
ACGTGTCC | -0.187
GCTCAACC | -0.231

Sequence | PBM E-score
GAAATTGA | 0.0938
AAGAGAAA | -0.0804
AGTAAGAA | 0.248
CTAGCTGA | -0.0664
TGCGGGAA | 0.044
AGTTATCC | 0.182
ACCTCCGA | -0.255
ATTGTGTG | -0.00808
ACTGTGCG | 0.0391
ACAACTGA | 0.0451
ACAACTCT | -0.0568
ACCGGTGA | -0.141
CCCACACG | -0.0691
AGGTTTTG | -0.0823
CACCCCCG | -0.116
ATCTACCC | 0.149
CCATTACG | 0.0884
GCCCTCCA | -0.253
AACACAAC | 0.165
AAAGCAAT | 0.233
AAATACCA | 0.0504
GAAGCTAC | -0.00835

Sequence | PBM E-score
TGTCCTAA | -0.0134
GGGGCGAA | -0.128
AGAGTATC | 0.198
GGATGGCA | 0.168
GGCTTACA | 0.132
TACGTATA | 0.142
AAGGGACA | 0.0649
AAGGGAAA | 0.0322
CCGAAGCG | -0.246
AACGGGGG | -0.258
ATGGTGTG | 0.0676
ACTTCCAC | 0.051
GCTTTCAC | -0.00313
ACGAGGCC | -0.247
ATCTAAGC | -0.228
ATGTTGCG | 0.102
CATACTAG | 0.226
AGGTACCA | -0.0525
AGATCAAC | -0.0012
GCCGAGTA | -0.179
ATCCAACA | 0.122
CCTGTATC | 0.2

Sequence | PBM E-score
ATATATCA | 0.118
AATTGAGG | 0.1
AAGATCCT | 0.126
GCCCAAGA | -0.222
GCTTCCAC | -0.185
AGTTGGCC | -0.206
CGGGCGCC | -0.126
ATGCCAGA | 0.134
GTGGTCCA | -0.0506
GTGCATAA | 0.0268
ACCATGAA | 0.114
ACCAAACT | 0.00739
AAAGATAC | 0.0753
AGAGGGGC | -0.232
GCTGTAAC | 0.0596
AATCACCC | 0.118
ACGGGACA | -0.124
CAGATTTA | 0.14
AAGGCAAC | 0.0537
CTATTCAG | 0.0134

Taken from above.
Under PBM E-score, GCCCAAGA shows -0.222
Under PBM E-score, CGGGCGCC shows -0.126
Under PBM E-score, CAGATTTA shows 0.14
